Laboratory results reported in patent US20160108382.
For at least one entry, the source does not settle the construct or the ends of the probe.

Protein sequences, listed by entry. Tags and fused reporters are not part of them. Lines headed by an entry give the natural chain unless they say otherwise; changes in a name come on top.
UniProt P06526: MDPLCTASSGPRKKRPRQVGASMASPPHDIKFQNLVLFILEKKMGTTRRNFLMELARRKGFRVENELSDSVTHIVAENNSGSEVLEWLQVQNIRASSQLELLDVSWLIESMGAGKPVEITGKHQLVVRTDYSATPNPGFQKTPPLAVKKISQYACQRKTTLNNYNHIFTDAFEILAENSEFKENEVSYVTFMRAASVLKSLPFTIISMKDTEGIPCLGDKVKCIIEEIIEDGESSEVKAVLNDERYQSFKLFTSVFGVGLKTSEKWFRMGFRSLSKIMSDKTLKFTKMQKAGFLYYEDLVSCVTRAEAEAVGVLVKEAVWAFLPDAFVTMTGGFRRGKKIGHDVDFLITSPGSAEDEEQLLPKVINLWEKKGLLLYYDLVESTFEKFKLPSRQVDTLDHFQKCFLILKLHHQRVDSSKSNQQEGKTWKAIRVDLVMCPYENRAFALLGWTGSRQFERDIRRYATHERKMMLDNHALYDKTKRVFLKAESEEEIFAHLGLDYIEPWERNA

Target: terminal deoxynucleotidyl transferase (TdT) (UniProt P06526)
Assay: activity assay
Details: CITED Tjong et al. 2011; template-independent extension with dATP, agarose gel time course; purified recombinant protein; label: 5'-Cy5; single-stranded DNA

## AAAAAAAAAA [5'-Cy5-dA10 strand initiator]
  activity on this sequence: active
